# PubChem BioAssay AID2685 (National Center for Advancing Translational Sciences (NCATS), 2010)
# The whole screen tested about 320,000 compounds, of which about 2,100 (0.66%) were called active. Inconclusive means that the source gave no clear call. Such entries were picked first, then a sample of the others. The call rests on the fitted dose curve; in most records, active means well fitted inhibition curve with a large enough effect in the signal ratio, with a control signal flat (not every such curve was filed as active); inconclusive means small, poorly fitted or top-dose-only effect, or effect the other way, or a change in a side signal; inactive means flat fitted curve, though single readings scatter; the % refers to the signal ratio. Potencies of inconclusive entries are doubtful fits and often do not repeat.
# Assay: qHTS Assay for Lipid Storage Modulators in Drosophila S3 Cells
# Details: BODIPY lipid droplet fluorescence, 18-24 h, cells fed with added oleic acid; lipid storage change, negative = inhibition: at 46.1 µM (top of the series) unless noted
# In short: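 Drosophila S3 cells loaded with oleic acid (400 uM, as added) and compounds at several concentrations; lipid droplets imaged by 488-nm laser-scanning cytometry, 500–530 nm intensity and object ratio to cell channel. Percent activity normalized to 20 uM Triacsin C.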
# On the % scale 0 is the no-effect control and ±100 the full control effect; potency means the concentration at half of the fitted maximal effect.
SMILES,"lipid storage change, negative = inhibition",Potency
Cn1c(N)c(C(=O)COC(=O)Cc2ccc(Cl)cc2)c(=O)n(C)c1=O,inconclusive,
COc1ccc(Cc2nnc(NC(=O)C3CCN(C(=O)c4ccco4)CC3)s2)cc1,inconclusive: -100%,
COc1ccc2cc(C(C)C(=O)N3CCC(C)CC3)ccc2c1 (configuration not stated),inconclusive: 9.21%,
COc1ccc(O)c(C(=O)/C=C/c2cc3ccccc3o2)c1,inconclusive: -63%,
O=C(NCc1nnc(SCC(=O)N2CCN(c3ccccc3)CC2)o1)c1ccccc1,inconclusive: 3.95%,
CCOC(=O)N1CCN(C(=O)c2ccc(CS(=O)(=O)c3ccccc3OC)o2)CC1,inconclusive: -26%,
CCCCOc1ccc(C(=O)NCc2ccncc2)cc1,,"inconclusive: 16.4 µM [activator, partial curve]"
Cc1c(Cl)c(C(=O)Nc2nc3ccccc3n2CCN2CCCCC2)nn1C,inconclusive: 6.55%,
COc1ccc2nc(NC(=O)C3CC(=O)N(c4ccc5c(c4)OCCO5)C3)sc2c1 (configuration not stated),inconclusive: -62.1%,
NC(=O)c1cc2ccncc2c2ccccc12,inconclusive: 34.1%,
CN1C=C(C(F)(F)F)C=C/C1=C(\C#N)c1nnc2n1CCCCC2,inconclusive: 8.61%,
CC(C)CCOc1ccc(/C=C2\CCn3c2nc2cc(C(=O)O)ccc2c3=O)cc1,inconclusive: -41.3%,
O=C(Nc1ccc2c(c1)OCCO2)C1CCN(S(=O)(=O)c2ccccc2)CC1,inconclusive: -71.9%,
CN(C)CCN1CC(C(=O)O)CC1=O (configuration not stated),inconclusive: -36.8%,
CCC(C)n1ncn(-c2ccc(N3CCN(c4ccc(OC)cc4)CC3)cc2)c1=O (configuration not stated),inconclusive: -22.8%,
Cc1cccc(NC(=O)C2CCN(S(=O)(=O)c3ccc4c(c3)NC(=O)CO4)CC2)c1,,"inconclusive: 2.91 µM [activator, single point]"
O=C(COC(=O)c1oc2ccccc2c1CSc1ccc(Cl)cc1)NC1CCCC1,,"inconclusive: 18.4 µM [activator, single point]"
COc1ccc(Cl)cc1NC(=O)CN(C)C(C)C(=O)NCC1CCCCC1 (configuration not stated),inconclusive: 146%,
CN1C(=O)Cc2cc(S(=O)(=O)N3CCN(c4cccc(C(F)(F)F)c4)CC3)ccc21,inconclusive: -14.5%,
COc1ccccc1CN1C(=O)CCC1(C)C(=O)NCc1cccnc1 (configuration not stated),inconclusive: 25.4%,
COc1ccc([N+](=O)[O-])cc1NC(=O)Nc1cccc(Cl)c1,inconclusive: -0.392%,
COc1ccc(S(=O)(=O)N(CC(=O)NCC2CCCO2)Cc2ccccc2)cc1 (configuration not stated),inconclusive: -5.23%,
CN(c1ccc(C(=O)NCc2ccco2)cc1)S(C)(=O)=O,inconclusive: 20%,
COc1ccc(CN(C)C(=O)Cc2ccc(S(=O)(=O)N3CCOCC3)s2)cc1OC,inconclusive: 8.57%,
CCc1ccc(OC)c(S(=O)(=O)Nc2ccc(Cc3ccncc3)cc2)c1,inconclusive: -20.5%,
CCN(CC1COc2ccccc2O1)C(=S)NC1CC2CCC1C2 (configuration not stated),inconclusive: 7.7%,

SMILES,"lipid storage change, negative = inhibition",Potency
O=C(Nc1cccc2ncccc12)c1ccc(-c2ccc(Br)cc2)o1,inactive: -6.65%,
Cc1ccc(SCCN2CCC(O)CCC2=O)cc1 (configuration not stated),,"inconclusive: 11.6 µM [activator, partial curve]"
O=C(COC(=O)c1ccc(F)c(S(=O)(=O)N2CCOCC2)c1)c1ccc(Cl)cc1,,"inconclusive: 29.1 µM [falling, single point]"
O=C(Cc1cn2ccsc2n1)Nc1nc2c(s1)CCCC2,inconclusive: -12.6%,
O=C(Nc1ccc(C(F)(F)F)cc1)C1CCN(c2cnccn2)CC1,,"inconclusive: 0.0046 µM [activator, full curve, poor fit]"
O=C(CCc1ccccc1)NC1CCCc2ccccc21 (configuration not stated),,"inconclusive: 3.26 µM [activator, full curve]"
O=C(Nc1ccc2c(c1)C(=O)OC2)Nc1cccc2ccccc12,inconclusive: 1.62%,
CCCCn1c(N)c(N(CCC(C)C)C(=O)C2CC(=O)N(Cc3ccc(C)cc3)C2)c(=O)[nH]c1=O (configuration not stated),inconclusive: -2.89%,
COc1ccccc1/C=C/C(=O)OCC(=O)N1CCc2ccccc21,,"inconclusive: 16.4 µM [activator, single point]"
COc1ccc(-c2csc(Nc3ccc(C)cn3)n2)cc1OC,inconclusive: -2.21%,
FC(F)C(F)(F)C1=CC(c2cccs2)=NCCN1,inconclusive: -53.7%,
O=C(C1CCN(C2CCN(Cc3ccsc3)CC2)CC1)N1CCOCC1,inconclusive: -43.6%,
Cc1cccc(-n2c(Cc3ccccc3)nnc2SCc2ccc([N+](=O)[O-])cc2)c1,inconclusive: -24.4%,
OC(CN1CCCCCC1)CN(c1ccccc1)c1ccccc1 (configuration not stated),inconclusive: -159%,
CC1CCC(Nc2nnnn2-c2ccccc2)CC1 (configuration not stated),inconclusive: -38.1%,
O=C(COc1ccc(C(=S)N2CCCC2)cc1)Nc1ccccc1C(F)(F)F,,"inconclusive: 0.146 µM [falling, full curve, poor fit]"
CCOc1ccc(/C=C2\SC(=S)N(NS(=O)(=O)c3ccc(C)cc3)C2=O)cc1OC,inconclusive: 14.3%,
COc1ccc([N+](=O)[O-])cc1NC(=O)c1cccnc1,inactive: -20.3%,
Clc1ccc(CSc2cc3c(nn2)-c2ccccc2CC3)cc1,,"inconclusive: 29.1 µM [falling, single point]"
Cc1ccc(CN2CCC(n3nccc3NC(=O)C3CCOC3)CC2)cc1 (configuration not stated),inconclusive: -2.09%,
COc1cc(NC(=O)c2cc([N+](=O)[O-])ccc2NC(=O)CNCc2ccccn2)cc(OC)c1,inconclusive: -100%,
CC(C)c1ccc(NC(=O)CCS(=O)(=O)c2cccc3nonc23)cc1,inconclusive: -38.6%,
CCCCC1(CC)C(=O)NC(=O)NC1=Nc1ccc(OC)cc1 (configuration not stated),inconclusive: -18.1%,
Cc1c(NC(=O)c2ccccc2NC(=O)COc2ccccc2)cccc1C(=O)O,,"inconclusive: 25.9 µM [activator, single point]"
CCOc1ccc(-c2nn[nH]n2)cc1,inconclusive: 30.7%,
Cc1ccc(-c2nc(C(=O)NCC3CCCO3)cc3c2[nH]c2ccccc23)cc1 (configuration not stated),,"inconclusive: 2.06 µM [falling, partial curve]"

SMILES,"lipid storage change, negative = inhibition",Potency
CCOc1cc(S(=O)(=O)N2CCN(C(=O)c3ccco3)CC2)ccc1F,inconclusive: -185%,
CCN(CC(=O)Nc1c(F)cccc1F)C(=O)/C=C/c1ccc(C)cc1,,"inconclusive: 29.1 µM [falling, partial curve, poor fit]"
CCOc1ccc(Nc2nc(NCC(=O)O)nc(N)c2[N+](=O)[O-])cc1,,"inconclusive: 0.651 µM [activator, full curve, poor fit]"
CCN1CCc2nc(NC(=O)Cc3ccc4c(c3)OCCO4)sc2C1,,"inconclusive: 0.82 µM [activator, full curve, poor fit]"
COc1cc(-c2cc(C(=O)Nc3cc(S(=O)(=O)N4CCOCC4)ccc3C)c3ccccc3n2)cc(OC)c1OC,inconclusive,
O=C(Cn1cnc2c(cnn2-c2ccc(F)cc2)c1=O)N1CCN(c2ccccc2F)CC1,inconclusive: -13.7%,
CC(=O)NCCNC(=O)c1ccc(NC2=NC3CS(=O)(=O)CC3S2)cc1 (configuration not stated),inconclusive: -23.9%,
Cc1ccc(OCC(=O)N/N=C\c2ccc(-c3cccc(C(=O)O)c3)o2)c(C)c1,,"inconclusive: 20.6 µM [activator, single point]"
O=C1CN(c2ccccc2F)C(=O)CN1c1ccccc1F,inconclusive: -61.4%,
Cn1c(CN2CCOCC2)nnc1SCC(N)=O,inconclusive: 3.71%,
O=C1NC(c2cn(-c3ccccc3)nc2-c2cccs2)C(C(=O)c2cccnc2)C(O)(C(F)(F)F)N1 (configuration not stated),,"inconclusive: 0.461 µM [rising, full curve, poor fit]"
CCCOc1ccccc1NS(=O)(=O)c1ccc2[nH]c(=O)[nH]c2c1,,"inconclusive: 0.651 µM [falling, single point]"
CCCCSc1nc(SCC(=O)NCc2ccco2)c2c3c(sc2n1)COC(C)(CC)C3 (configuration not stated),inconclusive: -28.9%,
Cn1c(-[n+]2c(-c3ccccc3)cc(-c3ccccc3)cc2-c2ccccc2)nc2c([N+](=O)[O-])cccc21,inconclusive: 32.6%,
Clc1ccc(OCc2nnc3n2CCCCC3)c(Cl)c1,inactive: 4.84%,
CCN(CC(=O)NC1CCS(=O)(=O)C1)S(=O)(=O)c1ccc(Cl)cc1C(F)(F)F (configuration not stated),,"inconclusive: 2.06 µM [falling, partial curve]"
CCn1c(=NC(=O)CS(=O)(=O)c2ccccc2)sc2cccc(OC)c21,inconclusive: -8.64%,
CC(=O)NC(c1ccccc1)c1nc2ccccc2[nH]1 (configuration not stated),inconclusive: -28.9%,
CC(C)C(NC(=O)c1ccc2c(c1)OCO2)C(=O)N/N=C\c1ccco1 (configuration not stated),inconclusive: 164%,
CC(C)(C)c1ccc(OC(=O)CN2C(=O)C3C4CCC(C4)C3C2=O)cc1 (configuration not stated),,"inconclusive: 29.1 µM [falling, single point]"
CCCCC(O)(CCCC)C(=O)NN(C(=O)CCl)c1ccccc1,,"inconclusive: 29.1 µM [falling, single point]"
O=C(NCCc1ccc(F)cc1)c1coc(=O)c(Br)c1,inconclusive: -44.3%,
NC(=O)CSc1nc2scc(-c3ccc(Cl)cc3)c2c(=O)n1Cc1ccccc1,,"inconclusive: 29.1 µM [falling, single point]"
CCN(CC)S(=O)(=O)c1ccc(NC(=S)NC(=O)CC(C)C)cc1,inconclusive: -96.8%,
CCn1c(CCNC(=O)c2ccc(Cl)c(Cl)c2)nnc1SCCOc1ccc(OC)cc1,,"inconclusive: 18.4 µM [falling, single point]"

# Structural class, the entries above with a nitro group on carbon
SMILES,"lipid storage change, negative = inhibition",Potency
COc1ccc([N+](=O)[O-])cc1NC(=O)Nc1cccc(Cl)c1,inconclusive: -0.392%,
Cc1cccc(-n2c(Cc3ccccc3)nnc2SCc2ccc([N+](=O)[O-])cc2)c1,inconclusive: -24.4%,
COc1ccc([N+](=O)[O-])cc1NC(=O)c1cccnc1,inactive: -20.3%,
COc1cc(NC(=O)c2cc([N+](=O)[O-])ccc2NC(=O)CNCc2ccccn2)cc(OC)c1,inconclusive: -100%,
CCOc1ccc(Nc2nc(NCC(=O)O)nc(N)c2[N+](=O)[O-])cc1,,"inconclusive: 0.651 µM [activator, full curve, poor fit]"
Cn1c(-[n+]2c(-c3ccccc3)cc(-c3ccccc3)cc2-c2ccccc2)nc2c([N+](=O)[O-])cccc21,inconclusive: 32.6%,
